# In PubChem BioAssay AID651640 (Broad Institute, 2012):
# The whole screen tested about 350,000 compounds, of which about 6,000 (1.7%) were called active. The shares of active, inactive and inconclusive entries below differ from those in the screen. No stated cut-off is given here; in the data, active means CPE inhibition above about 20% (passing the limit was not always enough); inconclusive means no clear call, values can overlap the other calls; tested in BHK-21 cells. More than one record can exist for a structure, and the calls need not agree.
# Test: protection of cells from dengue 2 killing – plate reader, single concentration, primary screen (AID 651640);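 further: 0% = median of neutral control wells and 100% = median of positive control wells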
# Conditions: DENV2-infected cells, cytopathic effect rescue, at 9.99 µM, stronger effect = higher value
row,SMILES,CPE inhibition
1,CC(CCc1ccccc1)NC(=O)CCNC(=O)c1ccccc1Cl (configuration not stated),inconclusive: 36.5%
2,COc1ccc(C(C)=O)cc1OCc1ccccc1,inactive: -6.21%
3,O=C(Cn1sc2ccccc2c1=O)Nc1ccc(Br)cc1,inconclusive: 72.3%
4,CC(C)Cc1cc(C(=O)NCc2cccnc2)no1,inconclusive: 28.1%
5,O=C(OCc1cn([C@H]2CN(Cc3cccs3)[C@@H](c3ccc(Cl)cc3)C[C@@H]2O)nn1)c1ccccc1,inconclusive: 42.7%
6,CS(=O)(=O)c1ccc(NS(=O)(=O)c2ccc3ccccc3c2)cc1,inactive: 11%
7,Nc1nn(-c2ccccc2)c(N)c1N=Nc1cccc(F)c1,inactive: 9.81%
8,COc1ccc(NC(=O)N(C)C[C@@H]2OCc3cnnn3CCCC(=O)N([C@@H](C)CO)C[C@@H]2C)cc1,active: 24.5%
9,S=C(Nc1ccc(Cl)cc1)NC1CC2CCC(C1)N2Cc1ccccc1 (configuration not stated),inconclusive: 25.2%
10,CC1C(c2ccccc2)OCCN1C=NC#N (configuration not stated),inconclusive: 31.5%
11,COc1ccc(S(=O)(=O)Nc2ccc3c(c2)CC(=O)N([C@@H](C)CO)C[C@@H](C)[C@@H](CN(C)C(=O)Nc2c(C)noc2C)O3)cc1,active: 29.8%
12,O=C(Nc1ccc2c(c1)[C@H]1C[C@@H](CC(=O)N3CCOCC3)O[C@@H](CO)[C@H]1O2)C1CCC1,inconclusive: 30.3%
13,CC1(Oc2cccc(F)c2)CCN(Cc2csc3ccccc23)C1 (configuration not stated),inconclusive: 26.3%
14,COc1ccc(NC(=O)Nc2ccc3c(c2)C(=O)N([C@@H](C)CO)C[C@@H](C)[C@H](CN(C)C(=O)Nc2ccc(C(F)(F)F)cc2)OCCCC[C@@H](C)O3)cc1,inconclusive: 56.2%
15,CCCC#Cc1ccc2c(c1)O[C@@H](CN(C)C(=O)CC)[C@H](C)CN([C@@H](C)CO)S2(=O)=O,inconclusive: 25.7%
16,Cc1nc(C(=O)N(C)C)nn1-c1ccc([N+](=O)[O-])cc1,inconclusive: 22.8%
17,CC(=O)N1CCCc2cc(S(=O)(=O)NC(C(=O)NC3CCCCC3)C(C)C)ccc21 (configuration not stated),inactive: 0.039%
18,Cc1c(C(=O)NCCN2C(=O)S/C(=C\c3cccs3)C2=O)cccc1[N+](=O)[O-],active: 27%
19,C[C@@H]1CN([C@@H](C)CO)S(=O)(=O)c2ccc(C#CC(C)(C)O)cc2O[C@@H]1CN(C)C(=O)C1CCCCC1,active: 21.5%
20,O=C(Cc1cccnc1)N[C@H]1CC[C@H](CCn2cc(-c3ccccc3F)nn2)O[C@H]1CO,active: 20%
21,CCOC(=O)C1CCN(C(=O)N(CC)CC)CC1,inconclusive: 26.9%
22,Cc1cc(C)c(C(=O)NC2CCCc3c2cnn3-c2ccc(C)c(C)c2)c(=O)[nH]1 (configuration not stated),active: 106%

# Individual results from the entries so far.
# Value of Nc1nn(-c2ccccc2)c(N)c1N=Nc1cccc(F)c1 under CPE inhibition: inactive: 9.81%
# Value of O=C(Nc1ccc2c(c1)[C@H]1C[C@@H](CC(=O)N3CCOCC3)O[C@@H](CO)[C@H]1O2)C1CCC1 under CPE inhibition: inconclusive: 30.3%
